Results on 24 substances are retold here after publication PMC11189303.

Chains of the proteins cited; added tags and fusions are not shown. Residues count along the entry.
UniProt Q567U6: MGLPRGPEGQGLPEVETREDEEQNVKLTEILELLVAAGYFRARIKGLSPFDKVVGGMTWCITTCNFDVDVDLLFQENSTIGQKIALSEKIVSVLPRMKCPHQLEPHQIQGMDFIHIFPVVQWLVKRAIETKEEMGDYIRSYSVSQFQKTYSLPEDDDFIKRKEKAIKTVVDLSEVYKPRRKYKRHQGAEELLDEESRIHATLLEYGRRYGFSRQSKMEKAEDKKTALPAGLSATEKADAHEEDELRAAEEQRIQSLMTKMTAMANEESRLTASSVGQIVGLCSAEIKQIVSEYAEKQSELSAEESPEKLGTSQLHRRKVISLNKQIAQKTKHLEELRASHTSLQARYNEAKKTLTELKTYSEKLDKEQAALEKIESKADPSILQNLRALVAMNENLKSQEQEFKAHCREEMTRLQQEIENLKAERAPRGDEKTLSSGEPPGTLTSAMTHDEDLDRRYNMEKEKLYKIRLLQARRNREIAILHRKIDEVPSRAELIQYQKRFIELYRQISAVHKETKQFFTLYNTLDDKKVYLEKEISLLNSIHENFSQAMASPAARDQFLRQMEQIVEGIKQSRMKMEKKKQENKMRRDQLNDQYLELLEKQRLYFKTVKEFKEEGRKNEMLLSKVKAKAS
UniProt Q8N668: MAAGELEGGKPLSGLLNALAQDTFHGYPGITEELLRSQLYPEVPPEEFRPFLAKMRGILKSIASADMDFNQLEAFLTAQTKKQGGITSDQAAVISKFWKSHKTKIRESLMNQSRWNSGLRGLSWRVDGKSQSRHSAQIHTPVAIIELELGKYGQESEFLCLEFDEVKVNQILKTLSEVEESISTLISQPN
UniProt Q86X83: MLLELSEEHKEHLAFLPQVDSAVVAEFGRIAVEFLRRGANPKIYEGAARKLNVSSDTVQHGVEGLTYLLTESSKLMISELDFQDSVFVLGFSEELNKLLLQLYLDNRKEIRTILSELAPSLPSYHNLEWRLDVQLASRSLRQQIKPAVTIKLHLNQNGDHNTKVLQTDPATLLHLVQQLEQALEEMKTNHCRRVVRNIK
UniProt Q7Z4G1: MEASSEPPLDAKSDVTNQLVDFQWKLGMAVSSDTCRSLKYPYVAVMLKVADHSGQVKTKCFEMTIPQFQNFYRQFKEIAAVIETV
UniProt Q9NX08: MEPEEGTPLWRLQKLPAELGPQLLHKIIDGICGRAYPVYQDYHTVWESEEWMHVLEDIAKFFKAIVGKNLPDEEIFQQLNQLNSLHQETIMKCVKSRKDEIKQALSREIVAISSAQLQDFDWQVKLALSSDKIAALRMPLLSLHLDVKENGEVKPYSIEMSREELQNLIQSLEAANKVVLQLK
UniProt Q9GZQ3: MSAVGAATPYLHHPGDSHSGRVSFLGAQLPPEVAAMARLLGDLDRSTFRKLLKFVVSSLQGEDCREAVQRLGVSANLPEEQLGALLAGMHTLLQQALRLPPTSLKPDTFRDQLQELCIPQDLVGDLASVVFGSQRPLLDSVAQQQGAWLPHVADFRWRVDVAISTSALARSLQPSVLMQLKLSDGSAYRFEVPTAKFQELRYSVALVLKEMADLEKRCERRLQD
UniProt Q9H0A8: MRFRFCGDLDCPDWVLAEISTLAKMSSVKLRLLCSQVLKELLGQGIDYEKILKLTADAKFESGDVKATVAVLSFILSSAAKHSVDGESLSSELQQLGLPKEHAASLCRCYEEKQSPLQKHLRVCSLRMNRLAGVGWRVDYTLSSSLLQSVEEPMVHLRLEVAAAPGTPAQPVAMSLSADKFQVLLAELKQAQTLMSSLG
UniProt Q9Y6G5: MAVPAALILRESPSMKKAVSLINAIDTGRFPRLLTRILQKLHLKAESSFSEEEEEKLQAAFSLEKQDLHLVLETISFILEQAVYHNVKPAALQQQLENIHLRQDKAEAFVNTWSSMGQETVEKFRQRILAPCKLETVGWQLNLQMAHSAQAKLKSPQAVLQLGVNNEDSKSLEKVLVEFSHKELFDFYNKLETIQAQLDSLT
UniProt Q02413, residues 50-1049: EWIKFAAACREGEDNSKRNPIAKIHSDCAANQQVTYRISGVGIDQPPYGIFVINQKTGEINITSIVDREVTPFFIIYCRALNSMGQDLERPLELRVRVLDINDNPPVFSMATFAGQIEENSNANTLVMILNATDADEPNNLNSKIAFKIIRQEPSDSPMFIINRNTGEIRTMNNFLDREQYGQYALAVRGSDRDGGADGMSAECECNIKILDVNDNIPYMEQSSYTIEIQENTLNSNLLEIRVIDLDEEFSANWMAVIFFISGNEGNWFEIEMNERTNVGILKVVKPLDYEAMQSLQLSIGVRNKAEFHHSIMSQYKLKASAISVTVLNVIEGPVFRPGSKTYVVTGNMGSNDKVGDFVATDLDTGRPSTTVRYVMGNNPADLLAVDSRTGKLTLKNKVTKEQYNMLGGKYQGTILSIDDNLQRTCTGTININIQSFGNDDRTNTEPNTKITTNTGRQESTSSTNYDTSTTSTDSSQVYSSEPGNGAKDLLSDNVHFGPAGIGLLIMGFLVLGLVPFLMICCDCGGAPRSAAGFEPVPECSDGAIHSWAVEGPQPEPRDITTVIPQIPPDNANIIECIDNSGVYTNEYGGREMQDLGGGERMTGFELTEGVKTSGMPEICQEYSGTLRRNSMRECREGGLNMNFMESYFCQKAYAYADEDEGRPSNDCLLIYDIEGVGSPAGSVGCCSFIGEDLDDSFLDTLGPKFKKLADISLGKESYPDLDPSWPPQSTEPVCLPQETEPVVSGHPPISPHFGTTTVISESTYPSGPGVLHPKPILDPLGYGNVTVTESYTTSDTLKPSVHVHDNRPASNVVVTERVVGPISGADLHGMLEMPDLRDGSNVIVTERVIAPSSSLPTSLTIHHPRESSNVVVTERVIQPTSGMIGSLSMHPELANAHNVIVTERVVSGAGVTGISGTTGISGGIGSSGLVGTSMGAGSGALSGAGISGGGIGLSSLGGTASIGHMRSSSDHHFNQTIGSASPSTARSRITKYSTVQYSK
UniProt P15924: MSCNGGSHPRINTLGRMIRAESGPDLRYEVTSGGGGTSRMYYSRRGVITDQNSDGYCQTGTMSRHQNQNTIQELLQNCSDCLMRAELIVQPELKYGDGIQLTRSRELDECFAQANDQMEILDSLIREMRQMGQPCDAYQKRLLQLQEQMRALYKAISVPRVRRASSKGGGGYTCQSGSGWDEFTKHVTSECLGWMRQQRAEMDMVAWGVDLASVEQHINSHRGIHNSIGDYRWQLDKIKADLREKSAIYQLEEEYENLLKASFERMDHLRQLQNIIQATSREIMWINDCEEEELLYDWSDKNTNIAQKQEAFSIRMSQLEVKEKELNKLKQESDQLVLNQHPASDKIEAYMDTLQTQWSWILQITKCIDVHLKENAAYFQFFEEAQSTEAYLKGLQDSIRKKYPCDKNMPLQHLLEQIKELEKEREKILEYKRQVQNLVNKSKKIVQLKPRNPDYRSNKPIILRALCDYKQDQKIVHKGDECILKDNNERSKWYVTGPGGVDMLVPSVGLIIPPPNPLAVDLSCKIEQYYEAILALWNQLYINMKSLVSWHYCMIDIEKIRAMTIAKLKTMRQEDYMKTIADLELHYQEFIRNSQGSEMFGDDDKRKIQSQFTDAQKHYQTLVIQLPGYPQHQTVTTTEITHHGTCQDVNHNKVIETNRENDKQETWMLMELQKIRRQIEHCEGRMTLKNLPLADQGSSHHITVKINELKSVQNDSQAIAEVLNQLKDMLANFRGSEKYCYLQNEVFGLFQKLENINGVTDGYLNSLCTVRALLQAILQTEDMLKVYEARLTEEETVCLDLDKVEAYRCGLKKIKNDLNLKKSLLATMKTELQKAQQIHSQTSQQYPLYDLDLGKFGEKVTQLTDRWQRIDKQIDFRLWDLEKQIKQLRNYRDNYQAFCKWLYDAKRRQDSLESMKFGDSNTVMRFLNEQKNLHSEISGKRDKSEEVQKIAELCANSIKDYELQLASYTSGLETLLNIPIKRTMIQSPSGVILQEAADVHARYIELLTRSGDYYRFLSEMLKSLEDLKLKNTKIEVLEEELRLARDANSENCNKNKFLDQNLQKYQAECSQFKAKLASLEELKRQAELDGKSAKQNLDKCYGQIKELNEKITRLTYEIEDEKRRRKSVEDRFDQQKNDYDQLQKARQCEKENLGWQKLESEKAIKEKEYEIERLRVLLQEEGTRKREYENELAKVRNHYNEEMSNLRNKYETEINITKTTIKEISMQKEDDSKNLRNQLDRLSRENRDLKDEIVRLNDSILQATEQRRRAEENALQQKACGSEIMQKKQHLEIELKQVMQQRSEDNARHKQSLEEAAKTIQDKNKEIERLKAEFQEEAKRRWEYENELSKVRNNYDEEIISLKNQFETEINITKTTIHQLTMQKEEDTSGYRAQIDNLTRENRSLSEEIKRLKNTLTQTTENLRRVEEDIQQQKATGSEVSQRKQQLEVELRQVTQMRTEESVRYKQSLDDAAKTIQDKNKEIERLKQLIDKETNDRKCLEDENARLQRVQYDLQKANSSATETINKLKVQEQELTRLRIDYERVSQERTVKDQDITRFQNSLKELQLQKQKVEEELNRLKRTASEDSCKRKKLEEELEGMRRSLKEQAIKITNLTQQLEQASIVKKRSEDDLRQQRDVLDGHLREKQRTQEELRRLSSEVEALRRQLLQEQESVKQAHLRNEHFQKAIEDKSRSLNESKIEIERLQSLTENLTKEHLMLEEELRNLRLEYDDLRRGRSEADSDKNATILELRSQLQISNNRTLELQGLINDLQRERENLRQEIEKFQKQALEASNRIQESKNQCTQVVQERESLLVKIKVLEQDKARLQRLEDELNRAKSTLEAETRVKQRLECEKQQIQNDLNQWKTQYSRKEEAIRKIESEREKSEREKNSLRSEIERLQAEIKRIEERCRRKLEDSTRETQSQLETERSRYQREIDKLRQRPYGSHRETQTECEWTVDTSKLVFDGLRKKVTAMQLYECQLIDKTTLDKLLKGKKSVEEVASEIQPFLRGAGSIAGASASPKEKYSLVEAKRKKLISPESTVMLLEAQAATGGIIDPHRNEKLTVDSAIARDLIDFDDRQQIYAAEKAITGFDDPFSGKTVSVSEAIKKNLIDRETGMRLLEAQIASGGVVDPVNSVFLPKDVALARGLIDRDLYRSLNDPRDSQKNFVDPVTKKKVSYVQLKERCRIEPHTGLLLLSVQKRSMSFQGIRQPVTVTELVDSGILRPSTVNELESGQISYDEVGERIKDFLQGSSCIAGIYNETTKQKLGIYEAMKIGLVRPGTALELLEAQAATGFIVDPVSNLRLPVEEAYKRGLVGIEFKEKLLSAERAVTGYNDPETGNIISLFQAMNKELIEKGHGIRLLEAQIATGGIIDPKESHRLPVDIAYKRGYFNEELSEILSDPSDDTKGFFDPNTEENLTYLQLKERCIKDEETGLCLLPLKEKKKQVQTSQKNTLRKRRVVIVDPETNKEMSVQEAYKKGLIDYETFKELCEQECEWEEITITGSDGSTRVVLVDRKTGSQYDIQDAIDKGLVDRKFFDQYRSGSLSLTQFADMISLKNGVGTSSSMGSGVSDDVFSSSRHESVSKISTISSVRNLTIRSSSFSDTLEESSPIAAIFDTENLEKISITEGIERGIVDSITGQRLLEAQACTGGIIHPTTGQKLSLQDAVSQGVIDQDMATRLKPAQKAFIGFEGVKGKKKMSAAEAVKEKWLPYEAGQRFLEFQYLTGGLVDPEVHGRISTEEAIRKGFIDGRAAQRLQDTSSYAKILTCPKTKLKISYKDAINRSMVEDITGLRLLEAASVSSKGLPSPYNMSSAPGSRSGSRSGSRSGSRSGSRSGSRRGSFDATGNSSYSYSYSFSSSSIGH
UniProt O75461: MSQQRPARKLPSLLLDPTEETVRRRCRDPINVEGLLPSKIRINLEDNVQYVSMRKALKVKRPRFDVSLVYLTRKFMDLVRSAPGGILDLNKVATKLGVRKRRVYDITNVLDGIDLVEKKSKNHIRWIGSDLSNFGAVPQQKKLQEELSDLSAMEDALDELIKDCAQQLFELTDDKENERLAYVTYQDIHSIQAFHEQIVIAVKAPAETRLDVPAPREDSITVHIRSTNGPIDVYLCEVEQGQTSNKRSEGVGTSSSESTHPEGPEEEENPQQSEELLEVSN
UniProt P63092: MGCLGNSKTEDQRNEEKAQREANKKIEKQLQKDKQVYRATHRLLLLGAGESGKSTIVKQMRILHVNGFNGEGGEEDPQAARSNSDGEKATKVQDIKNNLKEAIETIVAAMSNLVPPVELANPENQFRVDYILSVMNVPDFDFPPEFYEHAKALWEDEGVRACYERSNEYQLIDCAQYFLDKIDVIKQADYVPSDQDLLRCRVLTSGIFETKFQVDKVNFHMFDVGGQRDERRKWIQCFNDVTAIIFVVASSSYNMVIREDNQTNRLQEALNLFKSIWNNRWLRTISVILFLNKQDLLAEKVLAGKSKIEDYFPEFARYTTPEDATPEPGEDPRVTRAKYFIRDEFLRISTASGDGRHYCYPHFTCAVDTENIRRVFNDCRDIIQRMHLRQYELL

For assay [1], the target named is DENN domain-containing protein 10 (human) (UniProt Q8TCE6). In words: proximity labelling; BioID–MS: MAC-tagged (BirA*) bait in Flp-In T-REx 293, tetracycline and 50 μM biotin 24 h; lysis with 0.1% SDS and benzonase, Strep-Tactin beads; high-confidence interactions by SAINTexpress and CRAPome.
Assay [2] deals with CCDC93 (human) (UniProt Q567U6). The description is as above.
Assay [3] addresses CCDC22 (human) (UniProt O60826). Described as above.
Assay [4] concerns the target COMMD1 (human) (UniProt Q8N668). In words: affinity purification with mass spectrometry; MAC-tagged bait stably expressed in Flp-In T-REx 293 (tetracycline 24 h); cleared lysate (50 mM HEPES pH 8.0, 150 mM NaCl, 0.5% IGEPAL) on Strep-Tactin beads, eluted with biotin; high-confidence interactions by SAINTexpress (BFDR < 0.05) and CRAPome against MAC-tagged GFP controls.

Assay [5] addresses COMMD2 (human) (UniProt Q86X83). Described as above.
A further assay has as its target COMMD6 (human) (UniProt Q7Z4G1). Described as above.
The next assay deals with COMMD8 (human) (UniProt Q9NX08). In words: proximity labelling; BioID–MS: MAC-tagged (BirA*) bait in Flp-In T-REx 293, tetracycline and 50 μM biotin 24 h; lysis with 0.1% SDS and benzonase, Strep-Tactin beads; high-confidence interactions by SAINTexpress and CRAPome.
Assay [6] has as its target COMMD1 (human) (UniProt Q8N668). The assay is described as above.
The target in assay [7] is COMMD2 (human) (UniProt Q86X83). The description is as above.
Assay [8] concerns the target COMMD9 (human) (UniProt Q9P000). The description is as above.
Assay [9] deals with CCDC22 (human) (UniProt O60826). In words: affinity purification with mass spectrometry; MAC-tagged bait stably expressed in Flp-In T-REx 293 (tetracycline 24 h); cleared lysate (50 mM HEPES pH 8.0, 150 mM NaCl, 0.5% IGEPAL) on Strep-Tactin beads, eluted with biotin; high-confidence interactions by SAINTexpress (BFDR < 0.05) and CRAPome against MAC-tagged GFP controls.
The target in another assay is COMMD5 (human) (UniProt Q9GZQ3). Described as above.
The target in a further assay is COMMD4 (human) (UniProt Q9H0A8). The assay is described as above.
The target in the next assay is COMMD10 (human) (UniProt Q9Y6G5). Described as above.
The target of the next assay is COMMD3 (human) (UniProt Q9UBI1). The assay is described as above.
Assay [10] has as its target COMMD9 (human) (UniProt Q9P000). The description is as above.
The target of another assay is VPS35L (human) (UniProt Q7Z3J2). In words: proximity labelling; BioID–MS: MAC-tagged (BirA*) bait in Flp-In T-REx 293, tetracycline and 50 μM biotin 24 h; lysis with 0.1% SDS and benzonase, Strep-Tactin beads; high-confidence interactions by SAINTexpress and CRAPome.
Assay [11] concerns the target CCDC93 (human) (UniProt Q567U6). In words: affinity purification with mass spectrometry; MAC-tagged bait stably expressed in Flp-In T-REx 293 (tetracycline 24 h); cleared lysate (50 mM HEPES pH 8.0, 150 mM NaCl, 0.5% IGEPAL) on Strep-Tactin beads, eluted with biotin; high-confidence interactions by SAINTexpress (BFDR < 0.05) and CRAPome against MAC-tagged GFP controls.

Assay [12] deals with VPS35L wild type with C-terminal MAC3-tag (human) (UniProt Q7Z3J2). In words: proximity labelling; BioID–MS with C-terminal MAC3-tag (ultraID) on wild type and RSS disease variants of CCDC22 and VPS35L in Flp-In T-REx 293; biotin 5 h.
Assay [13] addresses VPS35L(A830T) with C-terminal MAC3-tag (human) (UniProt Q7Z3J2). Described as above.

These are yes or no findings as the source states them, for the method shown. Binding seen in cells or lysates may run through a third protein. A yes stands for co-enrichment or nearness to the bait. Other partners may have been found.

With COMMD1 (from UniProt Q8N668 1-190), the binding entry (in assay [1]; with CCDC93 (human) [2]) was “binds” each time.

For COMMD4 (from UniProt Q9H0A8 1-199), the binding result (in the assay with CCDC22 (human) [3]; in [1]) was “binds” in each case.

With COMMD5 (from UniProt Q9GZQ3 1-224), the binding entry (in [1]; in the assay with CCDC93 (human) [2]) was “binds” each time.

On to COMMD6 (from UniProt Q7Z4G1 1-85), for which the binding entry (in [1]; in the assay with CCDC93 (human) [2]) was “binds” throughout.

Regarding COMMD7 (from UniProt Q86VX2 1-200), the binding entry in assay [1] is given as “binds”.

With COMMD8 (from UniProt Q9NX08 1-183), the binding result (in [1]; with CCDC93 (human) [2]) was “binds” throughout.

On to COMMD10 (from UniProt Q9Y6G5 1-202), for which the binding entry (in assay [1]; with CCDC93 (human) [2]) was “binds” in each case.

DSC1 (from UniProt Q08554): the binding result with COMMD1 (human) [4], with COMMD2 (human) [5] and in the assay with COMMD6 (human) was “binds” in each case.

Take DSG1 (from UniProt Q02413 50-1049): the binding result with COMMD1 (human) [4], with COMMD2 (human) [5] and with COMMD6 (human) was “binds” each time.

Turning to DSP (from UniProt P15924 1-2871), the binding result with COMMD1 (human) [4], in the assay with COMMD2 (human) [5] and with COMMD6 (human) was “binds” in each case.

E2F4 (from UniProt Q16254 1-413): the binding result with COMMD8 (human) is recorded as “binds”.

For E2F6 (from UniProt O75461 1-281), the binding result with COMMD1 (human) [4], in the assay with COMMD1 (human) [6], with COMMD2 (human) [7] and in the assay with COMMD9 (human) [8] was “binds” each time.

Consider EXOC4 (from UniProt Q96A65 1-974), for which, in the assay with CCDC22 (human) [9], the binding entry was “binds”.

For EXOC5 (from UniProt O00471 1-708), the binding result in the assay with CCDC22 (human) [9] is “binds”.

Take EXOC6 (from UniProt Q8TAG9 1-804): the binding entry with CCDC22 (human) [9] is on record as “binds”.

“Guanine nucleotide-binding protein G(s) subunit α (GNAS) (from UniProt P63092 1-394)”: the binding result with COMMD5 (human), in the assay with COMMD4 (human), in the assay with COMMD10 (human), with COMMD3 (human) and with COMMD9 (human) [10] was “binds” throughout.

With HERC1 (from UniProt Q15751 1-4861), in the assay with VPS35L (human), the binding result is listed as “binds”.

For the substance MICAL3 (from UniProt Q7RTP6 1-2002), in the assay with CCDC93 (human) [11], the binding result is recorded as “binds”.

For “MTMR2 (Myotubularin-related protein) (from UniProt Q13614 1-643)”, the binding result with CCDC22 (human) [9] is given as “binds”.

Take “PCM1 (Pericentriolar Material 1) (from UniProt Q15154 1-2024)”: in the assay with CCDC22 (human) [9], the binding entry is reported as “binds”.

Take TFDP1 (from UniProt Q14186 1-410): the binding result with COMMD1 (human) [4] and with COMMD8 (human) was “binds” in each case.

With VPS26C (from UniProt O14972 1-297), the binding entry in assay [12], in assay [13] and in assay [1] was “binds” each time.

For WASHC2A (from UniProt Q641Q2 1-1341), the binding entry with CCDC22 (human) [9] is on record as “binds”.

With “gelsolin (GSN) (from UniProt P06396 28-782)”, the binding result with COMMD10 (human), with COMMD3 (human) and with COMMD9 (human) [10] was “binds” throughout.
